In paper PMC1064074:
No constants are given. Whether binding was seen depends on the method and setting. Binding seen in cells or lysates may run through a third protein. A result given as binding can be weak or reduced; the word gives no strength.

By UniProt entry, the sequences of proteins in these tests, tags left out. Where a name states a change or a piece, a line headed by the entry shows the natural chain unless it says otherwise.
UniProt Q8C6B2: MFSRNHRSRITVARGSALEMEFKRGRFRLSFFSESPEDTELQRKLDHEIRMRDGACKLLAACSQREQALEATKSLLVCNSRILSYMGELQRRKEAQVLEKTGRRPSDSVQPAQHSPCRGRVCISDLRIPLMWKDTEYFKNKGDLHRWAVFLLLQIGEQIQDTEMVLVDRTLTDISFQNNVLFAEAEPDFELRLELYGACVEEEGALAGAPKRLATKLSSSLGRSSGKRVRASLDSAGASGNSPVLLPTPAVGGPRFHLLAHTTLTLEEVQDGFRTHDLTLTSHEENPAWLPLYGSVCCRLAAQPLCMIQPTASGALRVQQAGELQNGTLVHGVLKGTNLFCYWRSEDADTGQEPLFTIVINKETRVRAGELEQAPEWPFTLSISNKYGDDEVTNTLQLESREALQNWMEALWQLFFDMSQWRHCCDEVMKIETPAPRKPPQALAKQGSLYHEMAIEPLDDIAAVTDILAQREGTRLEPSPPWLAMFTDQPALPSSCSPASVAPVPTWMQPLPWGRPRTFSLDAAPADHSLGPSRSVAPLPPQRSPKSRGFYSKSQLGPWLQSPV
UniProt P61586: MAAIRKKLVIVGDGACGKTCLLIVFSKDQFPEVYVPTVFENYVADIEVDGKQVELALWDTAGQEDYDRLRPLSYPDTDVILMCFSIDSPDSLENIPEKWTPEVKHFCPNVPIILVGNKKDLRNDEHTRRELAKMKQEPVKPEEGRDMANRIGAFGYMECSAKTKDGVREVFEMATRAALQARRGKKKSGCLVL

Molecular target: GST-RBD (Rho-binding domain of Rhotekin) fusion protein (UniProt Q8C6B2)
Assay: pull-down; glutathione beads coupled with the GST fusion protein incubated 45 min at 4°C with RIPA extracts of MDA-MB-435 cells (nondeprived or serum deprived for 6 or 24 hours); washed three times with Tris buffer pH 7.2, 1% Triton X-100, 150 mmol/l NaCl, 10 mmol/l MgCl2; bound GTPase detected by immunoblot; only the target purified

binding: binds
Substance: RhoA (from UniProt P61586 1-193)
